Taken from: PubChem BioAssay AID1508588 (Peter MacCallum Cancer Centre, 2020)
Test: 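Genome-wide search for knock-downs that heighten vemurafenib action in melanoma cells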 (primary screen). Cells: human WM266.4 melanoma cells (BRAF V600 mutant). Knock-down reagent: siRNA pool against human genes, 40 nM. Timing: 96 h from transfection to read-out. Conditions: vemurafenib 300 nM (about IC25), added 48 h after transfection, for 48 h; comparison arm got DMSO vehicle only. Measurement: 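Cell gain (DAPI nuclei at end minus before drug, mean of two replicates) and medium lactate by absorbance per cell, both as ratio to non-targeting siRNA, also grouped into fold-change classes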. Direction: cell gain with vemurafenib: higher = more cell gain than with non-targeting siRNA; lactate per cell with vemurafenib: higher = more lactate made per cell. Hit rule: 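a knock-down counts as enhancing when its fold-change classes with vehicle and with vemurafenib, taken together, show a stronger drug effect on cell gain or lactate per cell; exact class pairs not stated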. Calls: active = enhances vemurafenib effect; inactive = no enhancement seen.
Here is a random part of about 18,000 deposited reagents. In the full data, 790 (4.4%) got an active call. 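Calls rest on a combination of fold-change classes in drug and vehicle arms, not all shown here.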 Reagent sequences are not shown.

With knock-down of DUSP4 (GeneID 1846), the record shows cell gain with vemurafenib 0.7; lactate per cell with vemurafenib 4.12; inactive.
DDX27 (GeneID 55661) showed cell gain with vemurafenib 0.44; lactate per cell with vemurafenib 0.74; inactive.
Knock-down of KRT25 (GeneID 147183) resulted in: cell gain with vemurafenib 0.55; lactate per cell with vemurafenib 0.88; inactive.
GNLY (GeneID 10578) showed cell gain with vemurafenib 0.68; lactate per cell with vemurafenib 0.57; inactive.
Depletion of SIT1 (GeneID 27240) came out at: cell gain with vemurafenib 1.05; lactate per cell with vemurafenib 1.15; inactive.
Knock-down of VEZF1 (GeneID 7716) resulted in: cell gain with vemurafenib 0.4; lactate per cell with vemurafenib 0.94; inactive.

Part of the list above in another layout.
Target gene,cell gain with vemurafenib,lactate per cell with vemurafenib,Outcome
DDX27 (GeneID 55661),0.44,0.74,inactive
KRT25 (GeneID 147183),0.55,0.88,inactive

The list goes on.
CD24 (GeneID 100133941) showed cell gain with vemurafenib -0.02; lactate per cell with vemurafenib 1.8; inactive.
After knock-down of ABCC6 (GeneID 368) the results were cell gain with vemurafenib 0.16; lactate per cell with vemurafenib 1.15; inactive.
TARP (GeneID 445347) showed cell gain with vemurafenib 0.73; lactate per cell with vemurafenib 0.95; inactive.
After knock-down of KIF24 (GeneID 347240), the screen gave cell gain with vemurafenib 0.35; lactate per cell with vemurafenib 0.92; inactive.
With knock-down of LRRC49 (GeneID 54839), the screen gave cell gain with vemurafenib 1.59; lactate per cell with vemurafenib 0.88; inactive.
For LCE2C (GeneID 353140) the deposit lists cell gain with vemurafenib 0.77; lactate per cell with vemurafenib 0.73; inactive.
Depletion of BMP15 (GeneID 9210) resulted in: cell gain with vemurafenib 0.62; lactate per cell with vemurafenib 1.29; inactive.
FA2H (GeneID 79152) showed cell gain with vemurafenib 0.46; lactate per cell with vemurafenib 0.6; inactive.
For KLHL7 (GeneID 55975), the entry reads cell gain with vemurafenib 0.98; lactate per cell with vemurafenib 0.28; inactive.
After knock-down of LINC01565 (GeneID 23434), the record shows cell gain with vemurafenib 0.47; lactate per cell with vemurafenib 0.82; inactive.
